Laboratory results reported in patent publication US20030215852A1.
No constants are given. Whether binding was seen depends on the method and setting. Some binding calls cover weakened binding; strength is not graded here.

By UniProt entry, the sequences of proteins in these tests, tags left out. Where a name states a change or a piece, a line headed by the entry shows the natural chain unless it says otherwise.
UniProt Q92558: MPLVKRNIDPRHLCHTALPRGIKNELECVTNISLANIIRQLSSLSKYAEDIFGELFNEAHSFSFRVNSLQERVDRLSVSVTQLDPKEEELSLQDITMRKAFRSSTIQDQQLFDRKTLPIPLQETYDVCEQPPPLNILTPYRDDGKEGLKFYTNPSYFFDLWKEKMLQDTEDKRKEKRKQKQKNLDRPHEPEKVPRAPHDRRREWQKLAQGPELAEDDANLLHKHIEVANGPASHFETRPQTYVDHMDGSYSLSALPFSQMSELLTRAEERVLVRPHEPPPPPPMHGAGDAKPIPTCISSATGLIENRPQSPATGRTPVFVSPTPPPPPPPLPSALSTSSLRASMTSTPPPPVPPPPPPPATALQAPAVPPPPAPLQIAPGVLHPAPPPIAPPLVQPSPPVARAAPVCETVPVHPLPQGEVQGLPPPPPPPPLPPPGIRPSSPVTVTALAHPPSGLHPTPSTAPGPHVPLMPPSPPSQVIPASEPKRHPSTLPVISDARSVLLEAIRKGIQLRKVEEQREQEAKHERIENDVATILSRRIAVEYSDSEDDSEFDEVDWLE

Molecular target: Pablo (pro-apoptotic Bcl-XL binding protein) (human) (UniProt Q92558)
Test: yeast two-hybrid assay

B1: pancortin 2 (protein)
chain: MITNWMSQTLPSLVGLNTTKLSAAGGGTLDRSTGVLPTNPEESWQVYSSAQDSEGRCICTVVAPQQTMCSRDARTKQLRQLLEKVQNMSQSIEVLDRRTQRDLQYVEKMENQMKGLESKFKQVEESHKQHLARQFKG
Question: For B1, which binding is on record?
Answer: binds
